The list shows a part of the results.
Key:
Assay in all cases: glycan array binding signal (z-score within array); higher = stronger binding
Conditions in all cases: glycan notation: IUPAC condensed, linker removed
[1] = biological target: Fuc(a1-2)[Gal(a1-3)]Gal(b1-4)GlcNAc(b1-2)Man(a1-3)[Fuc(a1-2)[Gal(a1-3)]Gal(b1-4)GlcNAc(b1-2)Man(a1-6)]Man(b1-4)GlcNAc(b1-4)[Fuc(a1-6)]GlcNAc
How it was run: (§1)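 The Consortium for Functional Glycomics database supplied 3228 glycan arrays, of which those lacking an available protein sequence were dropped. The binding signal, a within-array Z-score, was averaged across arrays of the same protein sequence and across linkers. Negative scores can be read as non-binding.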

[2] = biological target: Fuc(a1-2)[Gal(a1-3)]Gal(b1-4)GlcNAc(b1-3)GalNAc
How it was run: as §1

[3] = biological target: Fuc(a1-2)[Gal(a1-3)]Gal(b1-4)GlcNAc(b1-3)[Fuc(a1-2)[Gal(a1-3)]Gal(b1-4)GlcNAc(b1-6)]GalNAc
How it was run: as §1

[4] = biological target: Fuc(a1-2)[Gal(a1-3)]Gal(b1-4)GlcNAc(b1-6)GalNAc
How it was run: as §1

[5] = biological target: Fuc(a1-2)[Gal(a1-3)]Gal(b1-4)[Fuc(a1-3)]Glc
How it was run: as §1

[6] = biological target: Fuc(a1-2)[Gal(a1-3)]Gal(b1-4)[Fuc(a1-3)]GlcNAc
How it was run: as §1

[7] = biological target: Fuc(a1-2)[Gal(a1-3)]Gal(b1-4)[Fuc(a1-3)]GlcNAc(b1-3)GalNAc
How it was run: as §1

[8] = biological target: Fuc(a1-2)[Gal(a1-4)]Gal(b1-4)GlcNAc
How it was run: as §1

[9] = biological target: Fuc(a1-2)[GalNAc(a1-3)]Gal
How it was run: as §1

[10] = biological target: Fuc(a1-2)[GalNAc(a1-3)]Gal(b1-3)GalNAc(a1-3)[Fuc(a1-2)]Gal(b1-4)GlcNAc
How it was run: as §1

[11] = biological target: Fuc(a1-2)[GalNAc(a1-3)]Gal(b1-3)GalNAc(b1-3)Gal(a1-4)Gal(b1-4)Glc
How it was run: as §1

[12] = biological target: Fuc(a1-2)[GalNAc(a1-3)]Gal(b1-3)GlcNAc
How it was run: as §1

[13] = biological target: Fuc(a1-2)[GalNAc(a1-3)]Gal(b1-3)GlcNAc(b1-2)Man(a1-3)[Fuc(a1-2)[GalNAc(a1-3)]Gal(b1-3)GlcNAc(b1-2)Man(a1-6)]Man(b1-4)GlcNAc(b1-4)GlcNAc
How it was run: as §1

[14] = biological target: Fuc(a1-2)[GalNAc(a1-3)]Gal(b1-3)GlcNAc(b1-2)Man(a1-3)[Fuc(a1-2)[GalNAc(a1-3)]Gal(b1-3)GlcNAc(b1-2)Man(a1-6)]Man(b1-4)GlcNAc(b1-4)[Fuc(a1-6)]GlcNAc
How it was run: as §1

[15] = biological target: Fuc(a1-2)[GalNAc(a1-3)]Gal(b1-3)GlcNAc(b1-3)GalNAc
How it was run: as §1

[16] = biological target: Fuc(a1-2)[GalNAc(a1-3)]Gal(b1-3)GlcNAc(b1-6)GalNAc
How it was run: as §1

[17] = biological target: Fuc(a1-2)[GalNAc(a1-3)]Gal(b1-4)Glc
How it was run: as §1

[18] = biological target: Fuc(a1-2)[GalNAc(a1-3)]Gal(b1-4)GlcNAc
How it was run: as §1

[19] = biological target: Fuc(a1-2)[GalNAc(a1-3)]Gal(b1-4)GlcNAc(b1-2)Man
How it was run: as §1

[20] = biological target: Fuc(a1-2)[GalNAc(a1-3)]Gal(b1-4)GlcNAc(b1-2)Man(a1-3)[Fuc(a1-2)[GalNAc(a1-3)]Gal(b1-4)GlcNAc(b1-2)Man(a1-6)]Man(b1-4)GlcNAc(b1-4)GlcNAc
How it was run: as §1

[21] = biological target: Fuc(a1-2)[GalNAc(a1-3)]Gal(b1-4)GlcNAc(b1-2)Man(a1-3)[Fuc(a1-2)[GalNAc(a1-3)]Gal(b1-4)GlcNAc(b1-2)Man(a1-6)]Man(b1-4)GlcNAc(b1-4)[Fuc(a1-6)]GlcNAc
How it was run: as §1

[22] = biological target: Fuc(a1-2)[GalNAc(a1-3)]Gal(b1-4)GlcNAc(b1-3)Gal(b1-4)GlcNAc
How it was run: as §1

[23] = biological target: Fuc(a1-2)[GalNAc(a1-3)]Gal(b1-4)GlcNAc(b1-3)Gal(b1-4)GlcNAc(b1-3)Gal(b1-4)GlcNAc
How it was run: as §1

[24] = biological target: Fuc(a1-2)[GalNAc(a1-3)]Gal(b1-4)GlcNAc(b1-3)GalNAc
How it was run: as §1

[25] = biological target: Fuc(a1-2)[GalNAc(a1-3)]Gal(b1-4)GlcNAc(b1-3)[Fuc(a1-2)[GalNAc(a1-3)]Gal(b1-4)GlcNAc(b1-6)]GalNAc
How it was run: as §1

[26] = biological target: Fuc(a1-2)[GalNAc(a1-3)]Gal(b1-4)GlcNAc(b1-6)GalNAc
How it was run: as §1

[27] = biological target: Fuc(a1-2)[GalNAc(a1-3)]Gal(b1-4)[Fuc(a1-3)]GlcNAc
How it was run: as §1

[28] = biological target: Fuc(a1-2)[GalNAc(a1-3)]Gal(b1-4)[Fuc(a1-3)]GlcNAc(b1-3)GalNAc
How it was run: as §1

[29] = biological target: Fuc(a1-2)[GalNAc(a1-4)]Gal(b1-4)GlcNAc
How it was run: as §1

[30] = biological target: Fuc(a1-2)[GalNAc(b1-3)]Gal
How it was run: as §1

Fuc(a1-3)GlcNAc = biological target: Fuc(a1-3)GlcNAc
How it was run: as §1

[31] = biological target: Fuc(a1-3)[Gal(b1-4)]Glc6S
How it was run: as §1

[32] = biological target: Fuc(a1-3)[Gal(b1-4)]GlcNAc
How it was run: as §1

[33] = biological target: Fuc(a1-3)[Gal(b1-4)]GlcNAc(b1-2)Man
How it was run: as §1

[34] = biological target: Fuc(a1-3)[Gal(b1-4)]GlcNAc(b1-2)Man(a1-3)[Fuc(a1-3)[Gal(b1-4)]GlcNAc(b1-2)Man(a1-6)]Man(b1-4)GlcNAc(b1-4)GlcNAc
How it was run: as §1

[35] = biological target: Fuc(a1-3)[Gal(b1-4)]GlcNAc(b1-2)Man(a1-3)[Fuc(a1-3)[Gal(b1-4)]GlcNAc(b1-2)Man(a1-6)]Man(b1-4)GlcNAc(b1-4)[Fuc(a1-6)]GlcNAc
How it was run: as §1

[36] = biological target: Fuc(a1-3)[Gal(b1-4)]GlcNAc(b1-3)Gal(b1-3)[Fuc(a1-4)]GlcNAc
How it was run: as §1

[37] = biological target: Fuc(a1-3)[Gal(b1-4)]GlcNAc(b1-3)Gal(b1-4)[Fuc(a1-3)]GlcNAc
How it was run: as §1

[38] = biological target: Fuc(a1-3)[Gal(b1-4)]GlcNAc(b1-3)Gal(b1-4)[Fuc(a1-3)]GlcNAc(b1-3)Gal(b1-4)[Fuc(a1-3)]GlcNAc
How it was run: as §1

[39] = biological target: Fuc(a1-3)[Gal(b1-4)]GlcNAc(b1-3)GalNAc
How it was run: as §1

[40] = biological target: Fuc(a1-3)[Gal(b1-4)]GlcNAc(b1-6)GalNAc
How it was run: as §1

[41] = biological target: Fuc(a1-3)[Gal(b1-4)]GlcNAc(b1-6)[Gal(b1-3)GlcNAc(b1-3)]Gal(b1-4)Glc
How it was run: as §1

[42] = biological target: Fuc(a1-3)[Gal(b1-4)]GlcNAc6S
How it was run: as §1

[43] = biological target: Fuc(a1-3)[Gal3S(b1-4)]Glc
How it was run: as §1

[44] = biological target: Fuc(a1-3)[Gal3S(b1-4)]GlcNAc
How it was run: as §1

B1: SJCP3842 (Schistosoma japonicum) (protein)
chain: MFKMRIINLVNISTVLLLINLLQTKSRLVGKENGFMLTVSIYGAQLSDKMTSVPVSWTIDYEDPEKSAFKKLVTDSCDTFSEYVKSQIPKGSVDGQCTSHIFQRPGSGSGVSISLTLSFIYVDVTQPDTVALKTELEKHFANFVTIHSHKITQAQFRINQKAIVIPTGDKDAIDGSKWKIIAIIALVALAIVVIGGFIYICVK
glycan array binding signal (z-score) [1]: 0.319 | glycan array binding signal (z-score) [2]: 0.343 | glycan array binding signal (z-score) [3]: 0.027 | glycan array binding signal (z-score) [4]: -0.994 | glycan array binding signal (z-score) [5]: -0.698 | glycan array binding signal (z-score) [6]: 0.536 | glycan array binding signal (z-score) [7]: 0.026 | glycan array binding signal (z-score) [8]: -0.102 | glycan array binding signal (z-score) [9]: 0.627 | glycan array binding signal (z-score) [10]: -1.3 | glycan array binding signal (z-score) [11]: -0.004 | glycan array binding signal (z-score) [12]: 0.689 | glycan array binding signal (z-score) [13]: -0.116 | glycan array binding signal (z-score) [14]: -1.18 | glycan array binding signal (z-score) [15]: -0.282 | glycan array binding signal (z-score) [16]: -0.635 | glycan array binding signal (z-score) [17]: -0.105 | glycan array binding signal (z-score) [18]: -1.04 | glycan array binding signal (z-score) [19]: -1.4 | glycan array binding signal (z-score) [20]: 0.475 | glycan array binding signal (z-score) [21]: 1.12 | glycan array binding signal (z-score) [22]: -0.465 | glycan array binding signal (z-score) [23]: 0.96 | glycan array binding signal (z-score) [24]: -0.993 | glycan array binding signal (z-score) [25]: -0.478 | glycan array binding signal (z-score) [26]: -0.701 | glycan array binding signal (z-score) [27]: 0.83 | glycan array binding signal (z-score) [28]: 0.005 | glycan array binding signal (z-score) [29]: -0.125 | glycan array binding signal (z-score) [30]: -1.9 | glycan array binding signal (z-score) (Fuc(a1-3)GlcNAc): 0.264 | glycan array binding signal (z-score) [31]: 0.102 | glycan array binding signal (z-score) [32]: -0.817 | glycan array binding signal (z-score) [33]: -0.894 | glycan array binding signal (z-score) [34]: -1.89 | glycan array binding signal (z-score) [35]: 0.64 | glycan array binding signal (z-score) [36]: 0.001 | glycan array binding signal (z-score) [37]: 2.06 | glycan array binding signal (z-score) [38]: -0.987 | glycan array binding signal (z-score) [39]: -0.492 | glycan array binding signal (z-score) [40]: -0.138 | glycan array binding signal (z-score) [41]: 0.354 | glycan array binding signal (z-score) [42]: 1.02 | glycan array binding signal (z-score) [43]: -0.384 | glycan array binding signal (z-score) [44]: 0.529
